Results taken from article PMC4155172, “Killing of melanoma cells and their metastases by human lactoferricin derivatives requires interaction with the cancer marker phosphatidylserine” (Biometals, 2014).
Where “and” joins values, the source holds several entries; their conditions need not be identical. Equal values may be shown once. Where a SMILES comes first, the peptide text is derived from it. The star is where a group is joined. Octanoyl(6-Me) = CCC(C)CCCCC(=O)*

Assays:
[1] = Tryptophan fluorescence and acrylamide quenching in PBS; type: physicochemical; conditions: room temperature; for λem,max in PBS: Trp emission; for KSV in PBS: acrylamide 0.1, 0.4, 0.7 M, excitation 282 nm
[2] = Tryptophan fluorescence and acrylamide quenching with DPPC membranes; conditions: for λem,max in DPPC: lipid to peptide ratio 25:1; for KSV in DPPC: lipid to peptide ratio 25:1, acrylamide quenching
Experimental: (§1) Appropriate amounts of respective phospholipid stock solution were dried under a stream of nitrogen and stored in vacuum overnight to completely remove organic solvents. The dry lipid film was then dispersed in phosphate buffered saline (PBS, 20 mM NaPi, 130 mM NaCl, pH 7.4) and hydrated at a temperature well above the gel to fluid phase transition of the respective phospholipid under intermittent vigorous vortex-mixing. The lipid concentration was 0.1 weight % for calorimetric and 2 % for leakage experiments. Hydration was carried out in presence or absence of peptides at a lipid-to-peptide ratio of 25:1 and 12.5:1 using a protocol described for POPS (Jiménez-Monreal et al. [1998]), DPPS (Jing et al. [2005]) and DPPC (Sevcsik et al. [2007]). Briefly hydration of POPS films occurred at 30 °C, DPPS at 65 °C and DPPC at 50 °C, for 2 h with vortexing for 1 min every 15 min. The hydration of the lipid mixtures DPPS/DPPC 1:5 and DPPS/DPPC 1:1 were performed at 65 °C for 2 h by vortexing accompanied by one freeze–thaw cycle every 15 min. The fully hydrated samples were stored for at least 1 h at room temperature until measurement.
(§2) Fluorescence spectroscopy experiments were performed using a SPEX Fluoro Max-3 spectrofluorimeter (Jobin–Yvon, Longjumeaum, France) and spectra were analyzed with Datamax software.
(§3) Tryptophan fluorescence spectra were obtained at room temperature using an excitation wavelength of 282 nm and a slit width of 5 nm for excitation and emission monochromators. Quenching of Tryptophan was carried out in the presence and absence of phospholipid liposomes (lipid-to-peptide ratio 25:1) using 0.1, 0.4 and 0.7 M acrylamide. The data were analyzed according to the Stern–Volmer equation (Eq. 2):2 F0F0FF=1+KSVQ where F0 and F represent the fluorescence emission intensities in the absence and presence of the quencher molecule (Q) and KSV is the Stern–Volmer quenching constant, which is a quantitative measure for the accessibility of tryptophan to acrylamide (Tao and Cho [1979]).

[3] = Tryptophan fluorescence and acrylamide quenching with DPPS membranes; conditions: for λem,max in DPPS: lipid to peptide ratio 25:1; for KSV in DPPS: lipid to peptide ratio 25:1, acrylamide quenching
Experimental: as §1, §2, §3

[4] = Tryptophan fluorescence and acrylamide quenching with POPS membranes; conditions: for λem,max in POPS: lipid to peptide ratio 25:1; for KSV in POPS: lipid to peptide ratio 25:1, acrylamide quenching

Question: For `CCC(C)CCCCC(=O)N1CCC[C@H]1C(=O)N[C@@H](Cc1ccccc1)C(=O)N[C@@H](Cc1c[nH]c2ccccc12)C(=O)N[C@@H](CCCNC(=N)N)C(=O)N[C@H](C(=O)N[C@@H](CCCNC(=N)N)C(=O)N[C@H](C(=O)N[C@@H](CCCNC(=N)N)C(=O)N[C@@H](CCCNC(=N)N)C(N)=O)[C@@H](C)CC)[C@@H](C)CC` (stereo partly drawn) [6-MO-LF11-322] ({Octanoyl(6-Me)}-PFWRIRIRR-NH2), which “λem,max in PBS” value [1] is on record?
Answer: 353 nm

Question: And the “KSV in PBS” value [1]?
Answer: ~ 20 M^−1 and 24.5 M^−1

Question: What about the “λem,max in DPPC” value [2] of the same compound?
Answer: 344 nm

Question: What about the “KSV in DPPC” value [2] of the same compound?
Answer: 10.5 M⁻¹

Question: And the “λem,max in DPPS” value [3]?
Answer: 337 nm

Question: What about the “KSV in DPPS” value [3] of the same compound?
Answer: 7.0 M⁻¹

Question: And the “λem,max in POPS” value [4]?
Answer: 342 nm

Question: What about the “KSV in POPS” value [4] of the same compound?
Answer: 4.5 M⁻¹

Question: With PFWRIRIRR-NH2 [LF11-322] as the compound, how does the “λem,max in PBS” value [1] read?
Answer: 354 nm

Question: What about the “KSV in PBS” value [1] of the same compound?
Answer: ~ 20 M^−1 and 19.7 M^−1

Question: What about the “λem,max in DPPC” value [2] of the same compound?
Answer: 354 nm

Question: And the “KSV in DPPC” value [2]?
Answer: 8.8 M⁻¹

Question: What about the “λem,max in DPPS” value [3] of the same compound?
Answer: 334 nm

Question: What about the “KSV in DPPS” value [3] of the same compound?
Answer: 7.9 M⁻¹

Question: What about the “λem,max in POPS” value [4] of the same compound?
Answer: 338 nm

Question: What about the “KSV in POPS” value [4] of the same compound?
Answer: 5.4 M⁻¹

Question: With “PFWRIRIRRPRRIRIRWFP-NH2 [R-DIM-P-LF11-322, retro repeat derivative: LF11-322-proline-LF11-322 retro]” as the compound, how does the “λem,max in PBS” value [1] read?
Answer: 353 nm

Question: And the “KSV in PBS” value [1]?
Answer: ~ 20 M^−1 and 19.1 M^−1

Question: What about the “λem,max in DPPC” value [2] of the same compound?
Answer: 352 nm

Question: What about the “KSV in DPPC” value [2] of the same compound?
Answer: 13.2 M⁻¹

Question: And the “λem,max in DPPS” value [3]?
Answer: 335 nm

Question: What about the “KSV in DPPS” value [3] of the same compound?
Answer: 4.3 M⁻¹

Question: And the “λem,max in POPS” value [4]?
Answer: 334 nm

Question: And the “KSV in POPS” value [4]?
Answer: 4.1 M⁻¹
